Among the data in patent US20190330338A1 (UNIVERSITY OF UTAH RESEARCH FOUNDATION, published 2019) are binding values, retold here.

No constants are given. Whether binding was seen depends on the method and setting. Some results given as binding are weak or reduced against the parent protein; the word gives no strength.

For this experiment, the target named is T1, recombinant CD229 (human) (UniProt Q9HBG7).
T1 sequence (looked up): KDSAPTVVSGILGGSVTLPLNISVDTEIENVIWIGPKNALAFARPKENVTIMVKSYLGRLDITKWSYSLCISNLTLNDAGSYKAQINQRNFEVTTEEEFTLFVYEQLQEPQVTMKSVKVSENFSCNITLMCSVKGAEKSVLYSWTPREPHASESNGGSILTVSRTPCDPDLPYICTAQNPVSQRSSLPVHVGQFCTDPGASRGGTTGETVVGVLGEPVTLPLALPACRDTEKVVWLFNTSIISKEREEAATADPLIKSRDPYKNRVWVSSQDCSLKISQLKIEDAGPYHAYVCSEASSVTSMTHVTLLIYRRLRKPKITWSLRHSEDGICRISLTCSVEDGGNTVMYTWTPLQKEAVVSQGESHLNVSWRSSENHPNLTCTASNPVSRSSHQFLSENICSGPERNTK
Briefly: flow cytometry of 293T cells expressing the CAR, stained with APC-labeled recombinant CD229. For orientation: Flow cytometry measures light scatter and fluorescence of single cells or particles in a stream.

B1: anti-CD229 CAR construct, Clone 1D1 (protein, not shown: large carriers)
chain: EVQLVQSGAEVKKPGASVKVSCKASGYTFTSYGISWVRQAPGQGLEWMGWISAYNGNTNYAQKLQGRVTMTTDTSTSTAYMELRSLRSDDTTVYYCARSPSTVVTPFSDYWGQGTLVTVSSLEGGGGSGGGGSGGGASNFMLTQPHSVSESPGKTVTISCTGSSGSIASNYVQWYQQRPGSSPTTVIYEDNQRPSGVPDRFSGSIDSSSNSASLTISGLKTEDEADYYCQSYDGSNPVVFGGGTQLTVLG
In the case of B1, the binding result is on record as “binds”.

B2: anti-CD229 CAR construct, Clone 2C5 (protein, not shown: large carriers)
chain: QVQLVESGAEVKKPGASVKVSCKASGYTFTAYYIHWLRQAPGQDLEWMGWIDPNSGGTNYAQKFQGRVTMTRDTSISTAYMELSRLRSDDTAVYYCARDWNYELDYWGRGTLVTVSPLEGGGGSGGGGSGGGASNFMLTQPHSVSGSPGKAVTISCTRSSGNIARSFVQWYQQRPGSAPTAVIYEDNRRPSGVPDRFSGSFDSSSNSASLTISGLKTEDEADYYCQSYDSSNHVVFGGGTKVTVLG
Regarding B2, the binding entry was “binds”.

B3: anti-CD229 CAR construct, Clone 1E12 (protein, not shown: large carriers)
chain: QITLKESGPTLVKPTQTLTLTCTFSGFSLSTSGVGVGWIRQPPGKALEWLALIYWNDDKRYSPSLKSRLTITKDTSKNQVVLTMTNMDPVDTATYYCAHISSSGGTEVQDYWGQGTLVTVSSLEGGGGSGGGGSGGGASDIQMTQSPSSLSASVGDRVTITCRASQSIGSSLHWYQQKPGKAPKFLIYDASSLESGVPSRFSGSGSGTEFTLTISSLQPDDCATYYCQQYNSYPLTFGGGTKLEIKR
With B3, the binding result was “binds”.

B4: anti-CD229 CAR construct, Clone 2D1 (protein, not shown: large carriers)
chain: QITLKESGPTLVKPTQTLTLTCTFSGFSLSTSGVGVGWIRQPPGKALEWLALIYWNDDKRYSPSLKSRLTITKDTSKNQVVLTMTNMDPVDTATYYCAQAKPYSSDFDIWGQGTMVTVSSLEGGGGSGGGGSGGGASNFMLTQPHSVSESPGKTVTISCTGSSGSIASNYVQWYQQRPGSSPTTVIYEDNQRPSGVPDRFSGSIDSSSNSASLTISGLKTEDEADYYCQSYDSSNQGVFGGGTQLTVLG
As to B4, the binding entry is “binds”.

B5: anti-CD229 CAR construct, Clone 1E4 (protein, not shown: large carriers)
chain: QVQLVESGAEVKKPGASVKVSCKASGYTFTAYYIHWLRQAPGQDLEWMGWIDPNSGGTNYAQKFQGRVTMTRDTSISTAYMELSRLRSDDTAVYYCARGWNYELDYWGQGTLVTVSSLEGGGGSGGGGSGGGASNFMLTQPHSVSGSPGKTVTISCTRSSGYIASNYVQWYQQRPGSAPTTVIYEDNQRPSGVPDRFSGSIDSSSNSASLTISGLKTEDEADYYCQSYDSSNQGVFGGGTKLTVLV
As to B5, the binding result is recorded as “binds”.

B6: anti-CD229 CAR construct, Clone 2E1 (protein, not shown: large carriers)
chain: QITLKESGPTLVKPTQTLTLTCTFSGFSLSTSGVGVGWIRQPPGKALEWLALIYWNDDKRYSPSLKSRLTITKDTSKNQVVLTMTNMDPVDTATYYCAQAKPYSSDFDIWGQGTMVTVSSLEGGGGSGGGGSGGGASDIQMTQSPSSLSASVGDRVTISCQASQDISNYLNWYQQKPGKAPKLLIYAASSLQSGVPSRFSGSGSGTDFTLTISSLQPEDFATYYCLQDYNYPWTFGQGTKVEIKR
In the case of B6, the binding entry was “binds”.

B7: anti-CD229 CAR construct, Clone 1C8 (protein, not shown: large carriers)
chain: QVQLLESGGGVAQPGRSLKLSCAASGFTFSSYGMHWVRQAPGEGLEWVAVISYDGSNKYYADSVKGRFTISRDNSKNTLYLQMNSLRAEDTAVYYCAKDTCTNGVCYPDYWGQGTLVTVSSLEGGGGSGGGGSGGGASDIVMTQSPATLSVSPGERATLSCRASQSVGSSLAWYQQKPGQAPRLLIYGGSVRATGIPARFSGSGSGTEFTLTISSLQSEDFAAYYCQQYNSYPLTFGGGTKLEIKR
For B7, the binding entry is reported as “binds”.

B8: anti-CD229 CAR construct, Clone 1B11 (protein, not shown: large carriers)
chain: QMQLVESGAEVKKPGSSVKVSCKASGGTFSSYAISWVRQAPGQGLEWMGGIIPIFGTANYAQKFQGRVTITADKSTSTAYMELSSLRSEDTAVYYCAADMELRDYYYGMDVWGQGTLVTVSSLEGGGGSGGGGSGGGASQSGLTQPRSVSGSPGQSVTISCTGTSSDVGGYNYVSWYQQHPGKAPKLMIYDVSKRPSGVPDRFSGSKSGNTASLTVSGLQAEDEADYYCSSYAGSNTFVFGSGTKLTVLG
Turning to B8, the binding result is given as “binds”.

B9: anti-CD229 CAR construct, Clone 1E10 (protein, not shown: large carriers)
chain: QVQLVESGAEVKKPGASVKVSCKASGYTFTAYYIHWLRQAPGQDLEWMGWIDPNSGGTNYAQKFQGRVTMTRDTSISTAYMELSRLRSDDTAVYYCARDWNYELDYWGQGTLVTVSSLEGGGGSGGGGSGGGASNFMLTQPHSVSGSPGKTVTISCTRSSGYIASNYVQWYQQRPGSSPTTLIYDDDQRPSGVPDRFSGSIDRSSNSASLTISGLKTEDEGDYYCQSYDSSLVIFGGGTKVTVLG
Consider B9, for which the binding result is given as “binds”.

B10: anti-CD229 CAR construct, Clone 2C11 (protein, not shown: large carriers)
chain: QVQLVESGAEVKKPGASVKVSCKASGYTFTAYYIHWLRQAPGQDLEWMGWIDPNSGGTNYAQKFQGRVTMTRDTSISTAYMELSRLRSDDTAVYYCARDWNYELDYWGQGTLVTVSSLEGGGGSGGGGSGGGASNFMLTQPHSVSGSPGKTVTISCTRSSGYIASNYVQWYQQRPGSSPTTLIYDDDQRPSGVPDRFSGSIDRSSNSASLTISGLKTEDEGDYYCQSYDSTTEVFGTGTKLTVLG
Consider B10, for which the binding entry is “binds”.
